Laboratory results published in the supplement of paper PMC4604168 (melanoma cell lines).
The list shows a part of the results. Single values are uncertain, as repeats are few or missing.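 Cells were imaged in 1,536-well plates, and nuclei stained with an antibody against cleaved PARP were counted against all DNA-stained nuclei to give the apoptosis fraction. Screening doses were chosen to leave most cells alive, and resting and induced cleaved-PARP levels differ strongly between cell lines.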

Columns and labels:
Experiment in all cases: cleaved PARP positive nuclei fraction relative to DMSO control; melanoma cells; higher = more apoptosis
Details in all cases: library dose: low library concentration; 72 h
WM115 = test system: WM115
WM1716 = test system: WM1716
WM1745 = test system: WM1745
WM3526 = test system: WM3526
WM3619 = test system: WM3619
WM451Lu = test system: WM451Lu

| Compound | cleaved PARP positive nuclei fraction (WM115) [%] | cleaved PARP positive nuclei fraction (WM1716) [%] | cleaved PARP positive nuclei fraction (WM1745) [%] | cleaved PARP positive nuclei fraction (WM3526) [%] | cleaved PARP positive nuclei fraction (WM3619) [%] | cleaved PARP positive nuclei fraction (WM451Lu) [%] |
| --- | --- | --- | --- | --- | --- | --- |
| NC(=O)Nc1cc(-c2cccc(F)c2)sc1C(=O)N[C@H]1CCCNC1 + Oc1cc(-c2nc(-c3ccccc3)[nH]c2-c2ccncc2)ccc1Cl [L779450] (first compound 0.02 µM, partner dose 0.2 µM) | 240 | 78.5 | 101 | 110 | 142 | 22.7 |
| O=C(CCCCCCC(=O)Nc1ccccc1)NO [vorinostat] + CC(C)CCN1c2nc(Nc3cc(F)c(O)c(F)c3)ncc2N(C)C(=O)C1C [BID1870] (first compound 0.08 µM, partner dose 0.2 µM) | 30.4 | 49.6 | 98.1 | 76.9 | 90.1 | 703 |
| Cn1c(Nc2ccc(C(F)(F)F)cc2)nc2cc(Oc3ccnc(-c4ncc(C(F)(F)F)[nH]4)c3)ccc21 + CN(NC(=O)CC(=O)NN(C)C(=S)c1ccccc1)C(=S)c1ccccc1 [STA4783] (first compound 0.08 µM, partner dose 0.006 µM) | 646 | 301 | 140 | 53.3 | 129 | 167 |
| COCC[n+]1c2c(n(Cc3cnccn3)c1C)C(=O)c1ccccc1C2=O + CCc1ccc(CCOc2ccc(CC3SC(=O)NC3=O)cc2)nc1 [pioglitazone] (first compound 0.0004 µM, partner dose 2 µM) | 197 | 117 | 90.5 | 64.2 | 70.2 | 667 |
| Nc1cccc2c1CN(C1CCC(=O)NC1=O)C2=O (centres undefined) [lenalidomide] + COc1cc2c(Oc3ccc4[nH]c(C)cc4c3F)ncnc2cc1OCCCN1CCCC1 [cediranib] (first compound 1 µM, partner dose 0.4 µM) | 48.2 | 117 | 98.3 | 66.6 | 88.9 | 58.9 |
| COCC[n+]1c2c(n(Cc3cnccn3)c1C)C(=O)c1ccccc1C2=O + c1cc(-c2cnn3cc(-c4ccc(OCCN5CCCCC5)cc4)cnc23)ccn1 [Dorsomorphin] (first compound 0.0004 µM, partner dose 0.4 µM) | 156 | 121 | 122 | 75 | 103 | 58 |
| Cn1nnc2c(C(N)=O)ncn2c1=O [temozolomide] + CCCCCCCCCCCC1=C(O)C(=O)C=C(O)C1=O [Embelin] (first compound 2 µM, partner dose 1.2 µM) | 93.3 | 147 | 120 | 71.4 | 88.3 | 27.4 |
| C[C@@H]1CCN(C(=O)CC#N)C[C@@H]1N(C)c1ncnc2[nH]ccc12 + COc1cc2c(Oc3ccc4[nH]c(C)cc4c3F)ncnc2cc1OCCCN1CCCC1 [cediranib] (first compound 1 µM, partner dose 0.4 µM) | 33.6 | 28.3 | 120 | 792 | 96 | 240 |
| CC1(C)NC(=O)N(c2ccc([N+](=O)[O-])c(C(F)(F)F)c2)C1=O [nilutamide] + O=C(Nc1ccccc1)c1cc([N+](=O)[O-])ccc1Cl [GW9662] (first compound 1 µM, partner dose 2 µM) | 109 | 64.5 | 121 | 38.2 | 91.6 | 222 |
| Cc1cc(N2CCOCC2)cc2[nH]c(-c3c(NC[C@@H](O)c4cccc(Cl)c4)cc[nH]c3=O)nc12 + CCCCCCCCCCCC1=C(O)C(=O)C=C(O)C1=O [Embelin] (first compound 0.2 µM, partner dose 1.2 µM) | 40.3 | 75.5 | 147 | 63.4 | 81.6 | 53.9 |
| C[C@@H]1CCN(C(=O)CC#N)C[C@@H]1N(C)c1ncnc2[nH]ccc12 + c1cc(-c2cnn3cc(-c4ccc(OCCN5CCCCC5)cc4)cnc23)ccn1 [Dorsomorphin] (first compound 1 µM, partner dose 0.4 µM) | 87 | 83.3 | 127 | 67.8 | 63.2 | 81.3 |
| CC(C)(C)c1cnc(CSc2cnc(NC(=O)C3CCNCC3)s2)o1 + O=C1NC(=O)/C(=C/c2ccc(-c3ccc(F)cc3O)o2)S1 [AS252424] (first compound 0.01 µM, partner dose 1 µM) | 219 | 143 | 123 | 60.1 | 107 | 212 |
| CO[C@@H]1[C@H](N(C)C(=O)c2ccccc2)C[C@H]2O[C@]1(C)n1c3ccccc3c3c4c(c5c6ccccc6n2c5c31)C(=O)NC4 [Midostaurin] + CN(C)S(=O)(=O)c1ccc2c(c1)/C(=C/c1cc3c([nH]1)CCCC3)C(=O)N2 [SU6656] (first compound 0.08 µM, partner dose 0.4 µM) | 524 | 216 | 154 | 64.3 | 98.3 | 32.6 |
| COc1cc(Nc2ncc(F)c(Nc3ccc4c(n3)NC(=O)C(C)(C)O4)n2)cc(OC)c1OC [Tamatinib] + O=C(Nc1cccc(Cl)c1)Nc1ncc(CCNc2ncnc3ccsc23)s1 [SNS314] (first compound 0.4 µM, partner dose 0.0008 µM) | 132 | 58.2 | 156 | 68.7 | 109 | 60.9 |

Part of the list above, with each value named:
NC(=O)Nc1cc(-c2cccc(F)c2)sc1C(=O)N[C@H]1CCCNC1 + Oc1cc(-c2nc(-c3ccccc3)[nH]c2-c2ccncc2)ccc1Cl [L779450] (first compound 0.02 µM, partner dose 0.2 µM)
  cleaved PARP positive nuclei fraction (WM115) [%]: 240
  cleaved PARP positive nuclei fraction (WM1716) [%]: 78.5
  cleaved PARP positive nuclei fraction (WM1745) [%]: 101
  cleaved PARP positive nuclei fraction (WM3526) [%]: 110
  cleaved PARP positive nuclei fraction (WM3619) [%]: 142
  cleaved PARP positive nuclei fraction (WM451Lu) [%]: 22.7
O=C(CCCCCCC(=O)Nc1ccccc1)NO [vorinostat] + CC(C)CCN1c2nc(Nc3cc(F)c(O)c(F)c3)ncc2N(C)C(=O)C1C [BID1870] (first compound 0.08 µM, partner dose 0.2 µM)
  cleaved PARP positive nuclei fraction (WM115) [%]: 30.4
  cleaved PARP positive nuclei fraction (WM1716) [%]: 49.6
  cleaved PARP positive nuclei fraction (WM1745) [%]: 98.1
  cleaved PARP positive nuclei fraction (WM3526) [%]: 76.9
  cleaved PARP positive nuclei fraction (WM3619) [%]: 90.1
  cleaved PARP positive nuclei fraction (WM451Lu) [%]: 703
